± gives the standard deviation of the averaged measurements. Some of the results follow. Repeats are few or missing, and single values can be far off.
These molecules were tested on RAW 264.7 macrophages infected with S. aureus JE2-lux (assay: host macrophage viability (CellTiter-Fluor) relative to DMSO vehicle; higher = more viable host cells). Settings: 10 µM; treatment time 4 h; gentamicin 50 µg/ml.

| Compound | host macrophage viability |
| --- | --- |
| O=C(CSc1nc(-c2ccccc2)cc(=O)[nH]1)N1CCN(c2ccccc2)CC1 | 120% |
| COc1cccc2cc(C(=O)Nc3ccc(N4CCOCC4)c(Cl)c3)c(=O)oc12 | 115% |
| CCS(=O)(=O)c1ccc(C(=O)Nc2nc3cc(C)cc(C)c3s2)cc1 | 128% |
| O=C(CSc1nc2sc3c(c2c(=O)[nH]1)CCC3)Nc1ccccc1C(F)(F)F | 102% |
| COc1cc2ncc(C(=O)NCCO)c(O)c2cc1OC | 120% |
| CCOC(=O)c1oc2ccccc2c1NC(=O)/C=C\c1ccc2c(c1)OCO2 | 121 ± 14% |
| O=C(COc1cccc2c1CCNC2=O)Nc1ccccc1C(F)(F)F | 122% |
| COc1ccc(/N=c2\scc(-c3ccc(OC)c(OC)c3)n2CCCO)cc1 | 102% |
| COc1ccc(C(=O)N(Cc2ccccc2)c2nc3[nH]c(C)cc(=O)n3n2)cc1 | 125% |
| O=C1Cc2cc(NS(=O)(=O)c3ccc4c(c3)NC(=O)CO4)ccc2N1 | 116% |
| Cn1c(=O)c2c(nc3n2CCCN3Cc2ccco2)n(C)c1=O | 127% |
| O=C1c2cccc3cccc(c23)C(=O)N1CCCc1nc2sc3c(c2c(=O)[nH]1)CCCC3 | 123% |
| CC(=O)N1c2ccc(S(=O)(=O)NCCc3n[nH]c(-c4ccc(F)cc4)n3)cc2CC1C (stereo unspecified) | 129% |
| O=C(CCCN1C(=O)/C(=C\c2ccco2)SC1=S)Nc1ccccc1C(=O)O | 116% |
| Cc1nc2ccn(Cc3ccccc3)c(=O)c2cc1C(=O)NCCC1=CCCCC1 | 129% |
| O=C(NCc1ccccn1)c1ccc2c(=O)n(Cc3ccccc3Cl)c(=S)[nH]c2c1 | 127% |
| Cc1nnc2sc(SCC(=O)Nc3nccs3)nn2c1=O | 116% |
| O=C1NC(=O)/C(=C\c2ccc(-c3cccc(Cl)c3Cl)o2)S1 | 134% |
| Cc1cc(OC(=O)C(c2ccccc2)c2ccccc2)c([N+](=O)[O-])c(=O)[nH]1 | 117% |
| O=C1N/C(=N/c2ccc(F)cc2)S/C1=C\c1ccc(F)cc1 | 105% |
| CCc1nc(SCc2cccnc2)c2c(=O)n(C)c(=O)n(C)c2n1 | 122 ± 4.2% |
| CCC(Sc1nc2ncccc2o1)C(=O)N1CCOc2ccc(C)cc21 (stereo unspecified) | 126% |

Among those listed so far, 15 have nitrogen in an aromatic ring.

| Compound | host macrophage viability |
| --- | --- |
| O=C(CSc1nc(-c2ccccc2)cc(=O)[nH]1)N1CCN(c2ccccc2)CC1 | 120% |
| CCS(=O)(=O)c1ccc(C(=O)Nc2nc3cc(C)cc(C)c3s2)cc1 | 128% |
| O=C(CSc1nc2sc3c(c2c(=O)[nH]1)CCC3)Nc1ccccc1C(F)(F)F | 102% |
| COc1cc2ncc(C(=O)NCCO)c(O)c2cc1OC | 120% |
| COc1ccc(/N=c2\scc(-c3ccc(OC)c(OC)c3)n2CCCO)cc1 | 102% |
| COc1ccc(C(=O)N(Cc2ccccc2)c2nc3[nH]c(C)cc(=O)n3n2)cc1 | 125% |
| Cn1c(=O)c2c(nc3n2CCCN3Cc2ccco2)n(C)c1=O | 127% |
| O=C1c2cccc3cccc(c23)C(=O)N1CCCc1nc2sc3c(c2c(=O)[nH]1)CCCC3 | 123% |
| CC(=O)N1c2ccc(S(=O)(=O)NCCc3n[nH]c(-c4ccc(F)cc4)n3)cc2CC1C (stereo unspecified) | 129% |
| Cc1nc2ccn(Cc3ccccc3)c(=O)c2cc1C(=O)NCCC1=CCCCC1 | 129% |
| O=C(NCc1ccccn1)c1ccc2c(=O)n(Cc3ccccc3Cl)c(=S)[nH]c2c1 | 127% |
| Cc1nnc2sc(SCC(=O)Nc3nccs3)nn2c1=O | 116% |
| Cc1cc(OC(=O)C(c2ccccc2)c2ccccc2)c([N+](=O)[O-])c(=O)[nH]1 | 117% |
| CCc1nc(SCc2cccnc2)c2c(=O)n(C)c(=O)n(C)c2n1 | 122 ± 4.2% |
| CCC(Sc1nc2ncccc2o1)C(=O)N1CCOc2ccc(C)cc21 (stereo unspecified) | 126% |

(more compounds)

| Compound | host macrophage viability |
| --- | --- |
| CC(C)c1nc2ccccc2c2nnc(SCC(=O)NCc3ccccc3)n12 | 117% |
| O=C(c1cc(F)cc(F)c1)N1CCc2nc(N3CCCC3)[nH]c(=O)c2C1 | 131% |
| N#Cc1ccccc1NC(=O)/N=c1\c2ccccc2[nH]c(=O)n1CCc1ccccc1 | 132% |
| Cc1cccc(-c2noc(CCn3c(=O)[nH]c4ccccc4c3=O)n2)c1 | 118% |
| CNC(=O)Cn1cc(OC)c(=O)cc1CSc1nnc(C)s1 | 117% |
| Cc1nn(-c2nc3ccccc3n2C)c2c1C(c1ccsc1)CC(=O)N2 (stereo unspecified) | 139% |
| CC1=CC2=NC(=O)CC(C)(C(=O)Nc3cccc(-c4csnn4)c3)N2C=C1 (stereo unspecified) | 116% |
| COc1cc(C(=O)N/N=C/c2ccc(Br)o2)cc(OC)c1OC | 104% |
| Cc1cccc(C)c1NC(=O)N1CCC(C(=O)c2ccc(F)cc2)CC1 | 113% |
| COc1ccccc1N1CCN(CCCNC(=O)c2c(-c3ccccc3)nnc3ccccc23)CC1 | 100% |
| c1cnc(-c2nc(-c3ccc(N4CCCCC4)cc3)no2)cn1 | 130% |
| Clc1ccc(C(CNc2nn3cnnc3c3ccccc23)N2CCCCC2)cc1 (stereo unspecified) | 113% |
| N#C/C(C(=O)c1ccc2c(c1)OCCO2)=C1/Nc2ccccc2S1 | 109 ± 5.8% |
| COc1cc(OC)cc(C(=O)NCC(=O)N/N=C/c2ccccc2OC)c1 | 114% |
| O=C(NNc1nc2c(F)cccc2s1)c1cc(-c2cccs2)nc2ccccc12 | 113 ± 3% |
| O=C1NC(=O)c2cc(NC(=O)c3cccc4ccccc34)ccc21 | 124% |
| O=C(NCCc1ccccc1)c1cnc2c(F)cccc2c1O | 122% |
| Cc1cc(C)cc(NC(=O)CSc2nccn(-c3ccc(C)c(Cl)c3)c2=O)c1 | 135% |
| Cc1nnc(SCC(=O)Nc2ccc(OC(F)F)cc2)n(N)c1=O | 112% |
| O=C(CSc1nc2sc3c(c2c(=O)[nH]1)CCCC3)NNC(=O)c1ccco1 | 95.4% |
| Cn1cnnc1SCc1cc(=O)c(OCC(=O)Nc2ccc(Cl)c(Cl)c2)co1 | 121% |
| O=C(CCCS(=O)(=O)c1ccccc1)Nc1nc2ccc(Br)cc2s1 | 127% |

| Compound | host macrophage viability |
| --- | --- |
| CCc1ccccc1NS(=O)(=O)c1c(C)sc(C)c1-c1cc(C(F)(F)F)on1 | 121% |
| CCOC(=O)c1sc2nc3c(cc2c1N)C(=O)CCC3 | 136% |
| O=C(CC1Nc2cccc3cccc(c23)NC1=O)Nc1ccc([N+](=O)[O-])cc1 (stereo unspecified) | 119% |
| COc1ccc(Nc2[nH]nnc2C(=O)Nc2ccc(C)c(Cl)c2)cc1Cl | 110% |
| O=C(Nc1ccc2sc(NC(=O)C3CCCCC3)nc2c1)c1cccnc1 | 122% |
| O=S(=O)(c1ccc(F)cc1)N1CCN(c2cnccn2)CC1 | 110% |
| N#Cc1ccc(C(=O)Nc2cccc3c2C(=O)c2ccccc2C3=O)cc1 | 110% |
| COc1ccc(NS(=O)(=O)c2cc(-c3ccno3)oc2C)cc1Cl | 115% |
| Cc1nc(N2CCC(C(=O)NC(C)C(=O)N3CCCCC3)CC2)c2c(C)c(C)oc2n1 (stereo unspecified) | 103% |
| Cc1ccc(NC(=O)CS(=O)CC(=O)NC2CCc3ccccc32)cc1Cl (stereo unspecified) | 126% |
| Cc1cccc(NC(=O)c2cnc(N3CCCCC3)c3ccccc23)n1 | 145% |
| COc1cccc2c1OC(c1ccncc1)N1N=C(c3cc(C)ccc3O)CC21 (stereo unspecified) | 123% |
| Cn1c(=O)c2c(nc(CN3CCN(c4ccccc4)CC3)n2CCN2CCOCC2)n(C)c1=O | 113% |
| COc1ccccc1-c1ocnc1C(=O)N1CCN(c2ncccn2)CC1 | 105% |
| O=C(O)c1ccccc1NC(=O)c1c2c(n3ccccc13)C(=O)c1ccccc1C2=O | 111% |
| COC(=O)c1sc(NC(=O)CSc2nnc3ccccn23)c(C(=O)OC)c1C | 94.9% |
| CC(C)c1ccc2[nH]c3nc(SCC(=O)NCc4ccco4)nnc3c2c1 | 111% |
| CC(=O)c1ccc(NC(=O)CSc2nnnn2-c2cc(C)cc(C)c2)cc1 | 123% |
| CCOc1ccc(C(=O)Nc2ccc(-c3cn4ccc(C)nc4n3)cc2)cc1 | 101% |
| COCCNC(=O)COc1nc(C)nc2oc(C)c(C)c12 | 125% |
| COc1cccc(/C=C2\SC(=S)N(c3ccc(O)c(C(=O)O)c3)C2=O)c1OC | 95.2% |
| c1ccc(OCCSc2nnc3sc4ccccc4n23)cc1 | 111% |

3 entries out of the list, arranged by count of non-hydrogen atoms, rising.

| Compound | host macrophage viability |
| --- | --- |
| CCS(=O)(=O)c1ccc(C(=O)Nc2nc3cc(C)cc(C)c3s2)cc1 | 128% |
| CCC(Sc1nc2ncccc2o1)C(=O)N1CCOc2ccc(C)cc21 (stereo unspecified) | 126% |
| CC(=O)N1c2ccc(S(=O)(=O)NCCc3n[nH]c(-c4ccc(F)cc4)n3)cc2CC1C (stereo unspecified) | 129% |
